Experimental data published in the supplement of paper PMC11006884.
Only a part is listed here, and it is no random draw.

Amino acid sequences for entries named in this document (tags omitted). A change or cut given only in a name is not applied to a line headed by its entry.
UniProt O75665: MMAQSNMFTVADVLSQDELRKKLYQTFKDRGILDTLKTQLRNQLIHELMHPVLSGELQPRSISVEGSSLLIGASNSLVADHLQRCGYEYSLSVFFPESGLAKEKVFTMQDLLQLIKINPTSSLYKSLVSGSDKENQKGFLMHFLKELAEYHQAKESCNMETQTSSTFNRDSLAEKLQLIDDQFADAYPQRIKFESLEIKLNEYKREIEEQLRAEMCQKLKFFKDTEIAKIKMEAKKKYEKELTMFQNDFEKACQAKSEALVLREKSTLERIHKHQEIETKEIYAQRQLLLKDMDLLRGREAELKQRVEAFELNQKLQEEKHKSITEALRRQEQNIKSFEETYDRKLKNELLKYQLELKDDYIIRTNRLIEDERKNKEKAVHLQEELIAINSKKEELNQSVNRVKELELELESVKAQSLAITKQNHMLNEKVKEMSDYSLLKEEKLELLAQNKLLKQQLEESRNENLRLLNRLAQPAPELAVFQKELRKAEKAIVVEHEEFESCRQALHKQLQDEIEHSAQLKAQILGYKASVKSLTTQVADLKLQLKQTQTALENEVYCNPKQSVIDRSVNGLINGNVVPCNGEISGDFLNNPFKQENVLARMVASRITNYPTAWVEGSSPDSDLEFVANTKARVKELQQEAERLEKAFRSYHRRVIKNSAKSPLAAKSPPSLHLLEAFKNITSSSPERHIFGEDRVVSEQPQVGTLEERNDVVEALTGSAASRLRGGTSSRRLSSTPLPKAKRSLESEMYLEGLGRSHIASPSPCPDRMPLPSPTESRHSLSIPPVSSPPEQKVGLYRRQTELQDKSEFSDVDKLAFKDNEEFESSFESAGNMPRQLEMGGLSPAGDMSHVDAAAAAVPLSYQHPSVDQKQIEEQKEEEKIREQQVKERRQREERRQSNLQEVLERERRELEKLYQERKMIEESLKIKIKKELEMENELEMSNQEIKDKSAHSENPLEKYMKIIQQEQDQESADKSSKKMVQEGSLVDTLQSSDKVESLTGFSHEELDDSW
UniProt O43491, whole entry, looked up: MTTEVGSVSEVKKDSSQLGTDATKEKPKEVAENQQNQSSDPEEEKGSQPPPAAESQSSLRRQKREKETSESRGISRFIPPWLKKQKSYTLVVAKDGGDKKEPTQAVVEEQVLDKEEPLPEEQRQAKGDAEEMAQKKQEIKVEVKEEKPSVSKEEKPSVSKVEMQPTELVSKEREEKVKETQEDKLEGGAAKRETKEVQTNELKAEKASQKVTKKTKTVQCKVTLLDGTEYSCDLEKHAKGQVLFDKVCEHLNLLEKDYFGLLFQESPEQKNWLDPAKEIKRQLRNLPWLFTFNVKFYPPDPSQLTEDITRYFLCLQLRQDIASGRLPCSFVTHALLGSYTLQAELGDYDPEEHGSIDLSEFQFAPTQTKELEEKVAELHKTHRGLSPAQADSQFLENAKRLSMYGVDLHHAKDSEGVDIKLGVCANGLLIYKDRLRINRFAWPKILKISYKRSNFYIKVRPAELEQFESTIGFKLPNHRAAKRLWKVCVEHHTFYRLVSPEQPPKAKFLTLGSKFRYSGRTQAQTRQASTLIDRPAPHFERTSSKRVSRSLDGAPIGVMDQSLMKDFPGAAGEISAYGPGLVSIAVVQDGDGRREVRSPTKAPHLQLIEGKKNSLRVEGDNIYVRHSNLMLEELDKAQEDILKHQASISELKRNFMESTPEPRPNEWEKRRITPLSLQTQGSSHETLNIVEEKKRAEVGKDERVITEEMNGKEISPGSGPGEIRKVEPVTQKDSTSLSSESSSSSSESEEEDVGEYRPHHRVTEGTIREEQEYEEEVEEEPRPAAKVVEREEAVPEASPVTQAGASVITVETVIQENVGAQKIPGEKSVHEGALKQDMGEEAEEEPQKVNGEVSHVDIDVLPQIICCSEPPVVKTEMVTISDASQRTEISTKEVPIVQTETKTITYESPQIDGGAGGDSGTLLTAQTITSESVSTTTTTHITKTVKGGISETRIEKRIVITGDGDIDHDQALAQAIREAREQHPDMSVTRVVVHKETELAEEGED
UniProt O75179: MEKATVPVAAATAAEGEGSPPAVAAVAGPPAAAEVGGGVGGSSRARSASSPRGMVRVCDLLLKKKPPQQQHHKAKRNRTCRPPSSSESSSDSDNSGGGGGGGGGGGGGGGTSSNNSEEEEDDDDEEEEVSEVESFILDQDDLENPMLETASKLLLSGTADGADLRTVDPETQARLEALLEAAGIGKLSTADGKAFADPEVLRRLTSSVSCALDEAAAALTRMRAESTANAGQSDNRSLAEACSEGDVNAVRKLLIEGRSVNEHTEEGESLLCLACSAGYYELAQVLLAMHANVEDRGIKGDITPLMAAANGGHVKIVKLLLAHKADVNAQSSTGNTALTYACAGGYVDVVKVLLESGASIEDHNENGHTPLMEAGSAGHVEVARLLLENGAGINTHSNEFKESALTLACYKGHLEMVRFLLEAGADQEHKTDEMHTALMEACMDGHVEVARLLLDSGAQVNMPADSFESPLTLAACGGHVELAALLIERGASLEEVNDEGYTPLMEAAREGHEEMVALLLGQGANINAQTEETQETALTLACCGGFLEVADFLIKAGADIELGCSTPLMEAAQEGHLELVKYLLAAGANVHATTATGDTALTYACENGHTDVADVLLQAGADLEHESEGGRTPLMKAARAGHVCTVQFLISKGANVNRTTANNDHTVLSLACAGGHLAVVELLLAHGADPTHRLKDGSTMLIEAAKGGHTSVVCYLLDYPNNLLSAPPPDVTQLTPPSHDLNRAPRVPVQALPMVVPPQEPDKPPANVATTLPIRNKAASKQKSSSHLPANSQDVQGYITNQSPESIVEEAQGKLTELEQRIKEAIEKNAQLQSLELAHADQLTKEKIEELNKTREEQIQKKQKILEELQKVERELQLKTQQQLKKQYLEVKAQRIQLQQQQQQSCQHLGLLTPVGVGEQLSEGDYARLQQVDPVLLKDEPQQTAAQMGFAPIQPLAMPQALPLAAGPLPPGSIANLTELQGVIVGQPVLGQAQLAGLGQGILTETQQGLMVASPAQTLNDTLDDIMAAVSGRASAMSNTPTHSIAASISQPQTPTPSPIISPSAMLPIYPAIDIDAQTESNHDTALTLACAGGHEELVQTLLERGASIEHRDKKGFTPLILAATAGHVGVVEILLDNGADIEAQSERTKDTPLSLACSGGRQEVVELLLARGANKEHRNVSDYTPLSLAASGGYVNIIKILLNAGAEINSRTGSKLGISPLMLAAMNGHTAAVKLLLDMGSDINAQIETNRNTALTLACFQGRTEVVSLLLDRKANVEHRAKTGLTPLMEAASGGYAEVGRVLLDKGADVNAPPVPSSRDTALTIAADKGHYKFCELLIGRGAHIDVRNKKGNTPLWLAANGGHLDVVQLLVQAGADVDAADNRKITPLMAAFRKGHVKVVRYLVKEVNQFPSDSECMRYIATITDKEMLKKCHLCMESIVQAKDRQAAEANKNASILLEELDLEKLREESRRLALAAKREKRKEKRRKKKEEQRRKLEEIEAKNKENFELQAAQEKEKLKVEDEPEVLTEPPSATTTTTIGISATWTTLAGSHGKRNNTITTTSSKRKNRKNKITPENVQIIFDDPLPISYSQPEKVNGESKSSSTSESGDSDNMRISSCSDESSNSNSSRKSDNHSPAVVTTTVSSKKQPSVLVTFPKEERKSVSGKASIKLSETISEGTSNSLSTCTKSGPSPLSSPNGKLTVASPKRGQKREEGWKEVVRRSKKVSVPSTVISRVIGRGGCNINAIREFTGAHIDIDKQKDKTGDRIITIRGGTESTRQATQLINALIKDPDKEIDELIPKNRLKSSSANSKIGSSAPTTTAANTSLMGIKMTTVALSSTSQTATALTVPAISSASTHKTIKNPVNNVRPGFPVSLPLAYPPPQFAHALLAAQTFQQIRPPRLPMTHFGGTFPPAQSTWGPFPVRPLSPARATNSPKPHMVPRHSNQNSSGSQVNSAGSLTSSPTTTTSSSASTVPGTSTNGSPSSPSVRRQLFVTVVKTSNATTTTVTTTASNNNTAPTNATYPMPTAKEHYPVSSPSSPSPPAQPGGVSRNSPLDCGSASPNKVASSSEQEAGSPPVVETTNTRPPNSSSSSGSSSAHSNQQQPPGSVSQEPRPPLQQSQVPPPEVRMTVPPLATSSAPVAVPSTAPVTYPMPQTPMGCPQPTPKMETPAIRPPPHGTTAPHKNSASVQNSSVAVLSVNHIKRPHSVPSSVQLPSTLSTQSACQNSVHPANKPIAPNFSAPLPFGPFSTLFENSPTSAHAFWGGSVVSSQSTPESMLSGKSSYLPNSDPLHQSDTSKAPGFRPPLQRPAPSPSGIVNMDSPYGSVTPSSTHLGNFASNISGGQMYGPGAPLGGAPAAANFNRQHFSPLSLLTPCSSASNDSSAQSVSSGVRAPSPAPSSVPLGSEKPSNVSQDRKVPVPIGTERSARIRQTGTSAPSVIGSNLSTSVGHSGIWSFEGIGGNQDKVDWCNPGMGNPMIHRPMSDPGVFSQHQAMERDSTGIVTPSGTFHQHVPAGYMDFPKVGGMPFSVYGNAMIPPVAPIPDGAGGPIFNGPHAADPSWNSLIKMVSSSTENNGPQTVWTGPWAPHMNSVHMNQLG
UniProt O43592: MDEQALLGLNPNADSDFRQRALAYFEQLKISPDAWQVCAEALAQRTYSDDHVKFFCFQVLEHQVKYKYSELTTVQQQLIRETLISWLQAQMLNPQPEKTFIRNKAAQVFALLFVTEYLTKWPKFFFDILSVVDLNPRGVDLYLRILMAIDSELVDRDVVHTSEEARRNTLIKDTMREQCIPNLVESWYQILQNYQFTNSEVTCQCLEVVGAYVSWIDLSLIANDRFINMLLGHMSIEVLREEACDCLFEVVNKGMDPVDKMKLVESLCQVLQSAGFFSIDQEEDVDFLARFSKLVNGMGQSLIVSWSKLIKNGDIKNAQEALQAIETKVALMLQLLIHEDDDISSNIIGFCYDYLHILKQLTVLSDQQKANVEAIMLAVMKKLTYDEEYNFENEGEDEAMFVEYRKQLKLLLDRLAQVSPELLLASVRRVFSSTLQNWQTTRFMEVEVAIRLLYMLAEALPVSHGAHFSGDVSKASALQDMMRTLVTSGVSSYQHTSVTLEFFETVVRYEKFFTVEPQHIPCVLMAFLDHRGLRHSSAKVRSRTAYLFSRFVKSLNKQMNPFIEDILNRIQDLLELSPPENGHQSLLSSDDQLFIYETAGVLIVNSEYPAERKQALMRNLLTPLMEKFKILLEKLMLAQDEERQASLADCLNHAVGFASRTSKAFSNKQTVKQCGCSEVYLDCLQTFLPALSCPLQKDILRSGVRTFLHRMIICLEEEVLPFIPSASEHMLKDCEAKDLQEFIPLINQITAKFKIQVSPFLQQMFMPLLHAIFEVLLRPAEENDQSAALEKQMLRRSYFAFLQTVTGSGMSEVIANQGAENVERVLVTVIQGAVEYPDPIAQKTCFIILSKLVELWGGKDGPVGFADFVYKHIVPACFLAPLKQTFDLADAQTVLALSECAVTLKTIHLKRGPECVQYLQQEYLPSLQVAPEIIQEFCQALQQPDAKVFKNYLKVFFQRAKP
UniProt O43290: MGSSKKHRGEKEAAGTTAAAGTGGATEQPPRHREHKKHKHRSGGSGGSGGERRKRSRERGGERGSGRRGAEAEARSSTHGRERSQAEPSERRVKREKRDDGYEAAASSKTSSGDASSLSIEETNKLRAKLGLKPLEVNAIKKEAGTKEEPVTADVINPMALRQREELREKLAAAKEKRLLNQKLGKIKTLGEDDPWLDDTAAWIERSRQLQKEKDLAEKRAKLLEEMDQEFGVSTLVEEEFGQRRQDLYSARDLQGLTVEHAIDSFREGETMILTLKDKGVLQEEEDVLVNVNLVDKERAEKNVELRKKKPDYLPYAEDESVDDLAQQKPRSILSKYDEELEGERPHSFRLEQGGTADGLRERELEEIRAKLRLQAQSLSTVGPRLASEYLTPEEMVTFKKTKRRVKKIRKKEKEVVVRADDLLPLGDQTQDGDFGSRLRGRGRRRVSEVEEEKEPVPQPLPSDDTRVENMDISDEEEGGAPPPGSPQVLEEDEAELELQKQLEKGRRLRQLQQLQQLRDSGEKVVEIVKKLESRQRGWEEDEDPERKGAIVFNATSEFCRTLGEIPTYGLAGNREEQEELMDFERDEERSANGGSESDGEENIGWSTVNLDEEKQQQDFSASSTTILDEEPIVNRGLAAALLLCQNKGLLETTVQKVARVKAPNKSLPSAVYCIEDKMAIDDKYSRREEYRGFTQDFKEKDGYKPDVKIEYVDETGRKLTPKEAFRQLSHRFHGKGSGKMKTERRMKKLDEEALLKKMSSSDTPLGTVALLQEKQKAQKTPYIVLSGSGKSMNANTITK

What follows are targets tested with COC(=O)C#Cc1ccccc1 [methyl 3-phenylpropiolate] (assay: log2 ratio of iodoacetamide-alkyne labeling of the cysteine site, DMSO over compound (competition); higher = stronger covalent engagement of the cysteine by the compound, active = 1 or more). Details: 500 µM; treatment time 1 h; system: HEK293T cell lysate.
How it was run: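 For each cysteine, the log2 competition ratio is mean control-channel reporter intensity over mean compound-channel reporter intensity. HEK293T lysate (2 mg/mL) was exposed to vehicle or electrophile (500 µM, 1 h, ambient temperature), labelled with iodoacetamide alkyne (1 h), clicked to sCIP-TMT reagents, digested overnight with trypsin at 37 °C, streptavidin-enriched and analysed by Orbitrap Eclipse LC-MS/MS with FAIMS and FragPipe. Cysteines quantified in only one of three replicates, each with duplicate channels, were excluded.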

Row | Target | log2 ratio of iodoacetamide-alkyne labeling
1 | LRCH4 C571 (UniProt O75427) | inactive: -0.25
2 | OFD1 C581 (UniProt O75665) | inactive: 0.478
3 | SAP30 C184 (UniProt O75446) | inactive: 0.513
4 | UniProt O43865_C106 | inactive: 0.504
5 | RRP9 C399 (UniProt O43818) | inactive: 0.297
6 | EPB41L2 C232 (UniProt O43491) | inactive: 0.584
7 | ANKRD17 C210 (UniProt O75179) | inactive: 0.398
8 | XPOT C650 (UniProt O43592) | inactive: 0.0949
9 | ROCK2 C649 (UniProt O75116) | inactive: 0.0353
10 | TBC1D4 C45 (UniProt O60343) | inactive: 0.216
11 | AKAP8 C631 (UniProt O43823) | inactive: 0.0578
12 | PEX1 C1185 (UniProt O43933) | inactive: 0.601
13 | SART1 C645 (UniProt O43290) | inactive: 0.0232
14 | ZC3H11A C209 (UniProt O75152) | inactive: 0.569
15 | UniProt O43776_C438 | inactive: 0.348

2 records drawn at random from the list so far:
Row | Target | log2 ratio of iodoacetamide-alkyne labeling
12 | PEX1 C1185 (UniProt O43933) | inactive: 0.601
11 | AKAP8 C631 (UniProt O43823) | inactive: 0.0578
